Measured values: PubChem BioAssay AID2441 (National Center for Advancing Translational Sciences (NCATS), 2010)
Inconclusive means that the source gave no clear call. Such entries were picked first, then a sample of the others. Potencies of inconclusive entries are doubtful fits and often do not repeat. Active and inactive are the calls of the source. Calls follow the shape of the dose curve; as a rule, active = well fitted inhibition curve with a large enough effect; inconclusive = small, poorly fitted or top-dose-only effect; inactive = flat fitted curve, though single readings scatter.

Assay: Cell cycle validation with wells to cells screening paradigm
Conditions: HeLa cell cycle G2/M arrest, Hoechst DNA content imaging
From the text: Understanding cell cycle regulation is a critical component in combating various diseases such as cancer. Proper execution of cell cycle activity is essential for processes such as cell growth, DNA replication, and mitosis and surveillance mechanisms function as cell cycle checkpoints at the G1, S, and G2/M phases. Thus, profiling agents which disrupt cancer cell division represents a large effort in oncology-based studies. Compound-induced cell cycle perturbations can be analyzed through changes in specific cell cycle phase markers, such as DNA content, using high content screening. Cell cycle inhibitors can be identified easily due to well established assays for this biological process, where early understanding of the phenotypic changes came from microscopy and early developments in automated imaging. Furthermore, recent imaging based studies have performed cell cycle analysis following compound treatment where phenotypic fingerprints for phases of the cell cycle were determined or concentration-response based testing of selected compounds and drugs was used to measure a phenotypic profile in a dose-dependent manner. We sought to improve the throughput of current cell cycle assays, typically performed in 384-well or lower density plates by optimizing this assay for 1,536 well microtiter plates through the coupling of a laser-scanning cytometer and an automated microscope.
Reagents: 70% EtOH, Hoechst Stain, PBS Controls: 7.6 uM (final starting concentration) Vinblastine and 38.3 uM (final starting concentration) nocodazole were dispensed into columns 1 and 2, respectively, and titrated 1:2 in DMSO (16-point in duplicate). Column 3 contained DMSO and column 4 contained a single concentration of nocodazole (38.3 uM) (full G2/M arrest, ~100% activity). Assay Steps: Six uL of HeLa cells (500 cells/well) were dispensed into 1536-well Aurora LoBase COP clear bottom plates and cells were incubated for 24 hours at 37 Celsius and covered with stainless steel rubber gasket-lined plate lids equipped with gas-exchange holes. Compound transfer was performed with a 1536-pin-tool and cells were incubated with compound 21-22 hours at 37 Celsius. For fixation, media was aspirated (with approximately 2 uL left in the well) and 5 ul 70% EtOH was added to each well followed by incubation at room temperature (covered) for 30 minutes. Next, EtOH was aspirated and 5 ul Hoechst stain in PBS (1:2000) was added to each well (1:2000) and left at room temperature (covered) for 30 minutes. Plates were read on the Acumen eX3 system and concentration response curves were generated after the readings. Compounds with concentration response curves passing curve fitting and efficacy thresholds were selected for further high resolution follow-up screening on the IN Cell 1000. Wells belonging to the concentrations on the curves of interest were flagged after the Acumen reads and subsequently read on the IN Cell.
In the case of `C[C@]12CC[C@@H]3c4ccc(O)cc4CC[C@H]3[C@@H]1CC[C@@H]2O`, the Potency is reported as active: 10 µM.
For `COc1cc2c(c(OC)c1OC)-c1ccc(OC)c(=O)cc1[C@@H](NC(C)=O)CC2`, the Potency was active: 0.02 µM.
For `O=c1cc(-c2ccccc2)[nH]c2nc(Cl)ccc12`, the Potency was active: 2 µM.
For `CC/C(=C(\c1ccccc1)c1ccc(OCCN(C)C)cc1)c1ccccc1`, the Potency was inconclusive: 28.2 µM [inhibitor, single point].
For `CN(C)S(=O)(=O)c1ccc2c(c1)/C(=C/c1cc3c([nH]1)CCCC3)C(=O)N2`, the Potency was inconclusive: 10 µM [inhibitor, partial curve].
With `Oc1ccc(-c2nc(-c3ccc(F)cc3)c(-c3ccncc3)[nH]2)cc1` the Potency was inconclusive: 28.2 µM [inhibitor, single point].
With `CCC1(O)CC2CN(CCc3c([nH]c4ccccc34)[C@@](C(=O)OC)(c3cc4c(cc3OC)N(C=O)C3[C@]45CCN4CC=C[C@@](CC)([C@@H](OC(C)=O)[C@]3(O)C(=O)OC)[C@H]45)C2)C1` (some centres undefined) the Potency was inconclusive: 0.0158 µM [inhibitor, full curve, poor fit].
For `O=c1[nH]c(=O)n([C@H]2C[C@H](O)[C@@H](CO)O2)cc1Br`, the Potency was inconclusive: 28.2 µM [inhibitor, single point].
For `CCCCCCCCCCCCCCCCCC(=O)NCC(COP(=O)([O-])OCC[N+](C)(C)C)OCC` (centres undefined), the Potency was inconclusive: 22.4 µM [inhibitor, single point].
